Experimental findings from patent US3951995A, “Method for industrial production of N-substituted dipropylacetamides” (Laboratorios Made, S.A., priority 1973, dated 1976) are described below.

Series [1] deals with convulsions and lethal effect of cardiazol. Kind of series: Anti-convulsant activity against cardiazol. In kind it is in vivo, albino rats I.C.R. Swiss. The following applies: Diazepam 3,6 mg/kg. The procedure: There have been employed 4 lots of 10 rats per lot, which received:
Lot (1): I 180 mg/kg and after 30 minutes cardiazol 1 mg/rat.
Lot (2): II 35 mg/kg and after 30 minutes cardiazol 1 mg/rat.
Lot (3): III 18 mg/kg and after 30 minutes cardiazol 1 mg/rat.

The nature of series [2]: Acute toxicity, lethal dose 50 (LD50), intraperitoneal. To be noted: rat, in vivo, ip, albino rats I.C.R. Swiss, both sexes, 24 ± 2 g, I and Diazepam suspended in acacia gum, II and III in HCl. An excerpt: The lethal dose 50 (LD50) has been determined on albino rats I.C.R. Swiss, of both sexes, weighing 24 ± 2 g. The drugs have been administered by intraperitoneal way.

As for `CN1C(=O)CN=C(c2ccccc2)c2cc(Cl)ccc21` [Diazepam, reference compound], the “number of dead animals” value in series [1] (after 30 minutes cardiazol 1 mg/rat, 10 rats per lot, control 0) is 0. For the same compound, the “number of animals with convulsions” value in series [1] (after 30 minutes cardiazol 1 mg/rat, 10 rats per lot, control 8) turned out to be 0. Further, the “protection against the convulsions originated by cardiazol” value in series [1] (cardiazol 1 mg/rat) was found to be 100%. In series [2], this compound yielded an LD50 of 270 mg/kg.
